In PubChem BioAssay AID493014 (National Center for Advancing Translational Sciences (NCATS), 2011):
Among all 340,000 compounds or so, about 170 (0.05%) were called active. The shares of active, inactive and inconclusive entries below differ from those in the screen. The call rests on the fitted dose curve; in most records, active means well fitted inhibition curve with a large enough effect in the signal ratio, with a control signal flat (not every such curve was filed as active); inconclusive means small, poorly fitted or top-dose-only effect, or effect the other way, or a change in a side signal; inactive means flat fitted curve, though single readings scatter; the % refers to the signal ratio. Potencies beside an inconclusive call are fits to weak or partial responses and may not hold up.

Assay: qHTS Assay to Find Inhibitors of Chronic Active B-Cell Receptor Signaling;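 on activity change, negative = inhibition: plate controls were basal doxycycline-induced cells for no effect and cells given 10 µM MG132 for full effect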
Conditions: ABC-DLBCL IkBa-CBG/CBR reporter, luminescence ratio (green luciferase fused to IkBa over red control in TMD8 lymphoma cells), 4 h; activity change, negative = inhibition: at 46.1 µM (top of the series)
Method in brief: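 Cell line TMD8 (human ABC DLBCL), stably expressing tet-inducible CBG68-IkBa fusion and CBR; IMDM/0.5% FBS; cpd up to 46 uM; dox induction, 4 h, 37C/5% CO2; dual luminescence; green/red ratio; MG132 control.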
Potency means the concentration at half of the fitted maximal effect.

SMILES | activity change, negative = inhibition | Potency
COc1cc(O)c(C(CCN2CCN(c3ccccc3)CC2)c2ccc(N(C)C)cc2)c(OC)c1 (stereo unspecified) | inconclusive: 2.15% | 
CC1CCC(NC(=O)c2cc3ccccc3cc2O)CC1 (stereo unspecified) |  | inconclusive: 18.4 µM [falling, partial curve]
COC(=O)C1(C#N)C(c2ccccc2)C1(C(=O)OC)C(=O)OC (stereo unspecified) | inconclusive: 10.5% | 
CC12CCC(C(=O)N(CSC(=S)N/N=C\c3ccccc3Cl)C1=O)C2(C)C (stereo unspecified) |  | inconclusive: 5.8 µM [rising, full curve, poor fit]
Cc1ccc(OCC(=O)Nc2ccc3c4c(cccc24)CC3)c(C)c1 | inconclusive: -0.391% | 
CC(CN1CCN(c2ccccc2)CC1)c1ccccc1 (stereo unspecified) | inconclusive: 17.9% | 
O=c1[nH]c2cc3c(cc2cc1CN(Cc1ccco1)C(=S)NCC1CCCO1)OCCO3 (stereo unspecified) | inactive: 3.65% | 
Cc1sc2ncnc(N3CCC(C(=O)Nc4ccc(OC(F)F)c(Cl)c4)CC3)c2c1C |  | inconclusive: 25.9 µM [falling, single point]
Clc1ccc2oc(-c3cccnc3)nc2c1 | inconclusive: 10.4% | 
Cc1cc(N2C(=O)C(O)=C(C(=O)c3ccc(C)o3)C2c2cccs2)no1 (stereo unspecified) | inconclusive: 14.3% | 
Cc1cc(NC(=O)C2CC(c3cccc(Br)c3)=NO2)no1 (stereo unspecified) |  | inconclusive: 29.1 µM [falling, single point]
CC1CCCN(CC(O)COCc2ccccc2)C1 (stereo unspecified) | inconclusive: -8.59% | 
O=C(CN1CCN(S(=O)(=O)c2ccc(Br)cc2)CC1)Nc1ccc(F)cc1 | inconclusive: -12% | 
c1ccc2sc(-c3ccc4c(c3)OCO4)nc2c1 | inconclusive: -19.6% | 
COc1cc(NC(=O)CSc2nnnn2Cc2ccc3c(c2)OCO3)cc(OC)c1 |  | inconclusive: 16.4 µM [falling, single point]
Cc1ccc2c(c1)C1NC(=S)NC(C)(O2)C1C(=O)Nc1ccc(Cl)cc1 (stereo unspecified) | inactive: -0.848% | 
CC(=O)c1ccc(OC(=O)c2cc3ccccc3oc2=O)cc1 | inactive: 7.24% | 
CSc1nccc(Oc2cncc(Cl)c2)n1 | inactive: -9.84% | 
O=C1NC(SCCCF)=N/C1=C/c1ccc(-n2cncn2)cc1 | inconclusive: 0.2% | 
COc1ccccc1C(=O)OCc1cc(=O)n2ccsc2n1 |  | inconclusive: 29.1 µM [falling, single point]
Cc1cc(C(=O)N/N=C/c2cccn2C)n[nH]1 |  | inconclusive: 18.4 µM [falling, partial curve]

SMILES | activity change, negative = inhibition | Potency
O=C(NCC1CCCO1)c1cc(C(=O)c2ccc(Cl)cc2Cl)c[nH]1 (stereo unspecified) | inconclusive: -4.87% | 
O=C(/C=C/c1cccc(Br)c1)c1ccc2c(c1)OCO2 |  | inconclusive: 15.8 µM [falling, partial curve, poor fit]
CCc1nnc(NS(=O)(=O)c2ccc(NC(=O)c3cccc(OC)c3)cc2)s1 | inactive: 2.46% | 
CCOc1ccc2nc(NC(=O)c3cnccn3)sc2c1 | inconclusive: 14.5% | 
COc1ccccc1NC(=O)CSc1nc2ncccc2[nH]1 | inconclusive: -5.73% | 
O=C(Cn1c(=O)oc2cc(S(=O)(=O)N3CCCC3)ccc21)NC1CCCc2ccccc21 (stereo unspecified) | inactive: 5.3% | 
CN(C)c1ccc(-c2ccc3oc(-c4ccsc4)cc(=O)c3c2)cn1 | inconclusive: 5.92% | 
CCn1cc(CN2CCCC(C(=O)Nc3ccc(-c4nc5ccccc5[nH]4)cc3)C2)c(C)n1 (stereo unspecified) | inconclusive: -1.18% | 
Cn1c(C(=O)N2CCCC(C(=O)NCCN3CCOCC3)C2)cc2sccc21 (stereo unspecified) | inconclusive: 4.17% | 
Cc1cccc(OCC(=O)Nc2ccc3c(c2)nc(CCN2CCC(C)CC2)n3C)c1 | inconclusive: -5.88% | 
CNC(=O)N(O)C1N(/N=C/c2ccccc2OC)C(=S)SC1(C)C (stereo unspecified) | inconclusive: -15.2% | 
COc1ccccc1CNC(=O)COc1ccccc1OC | inconclusive: -4.32% | 
COCC(=O)Nc1nc2ccc(C)cc2s1 |  | inconclusive: 23.1 µM [falling, single point]
C/C(=N\Nc1ccc(Cl)c(C(=O)O)c1)c1ccc2c(c1)OCO2 |  | inconclusive: 20 µM [falling, partial curve]
CCCCCc1c(C)nc(N2CCc3ccccc32)[nH]c1=O | inconclusive: 8.72% | 
Cc1ccc(NCc2ccc(C)s2)cc1 | inconclusive: 14.2% | 
Cn1c(Sc2ccc(C(=O)O)cc2[N+](=O)[O-])nnc1-c1ccccc1 | inactive: -0.464% | 
CN(C)CCNC(=O)/C(=C/c1ccc(-c2cccc(Cl)c2)o1)NC(=O)c1ccccc1 | inconclusive: -9.65% | 
CCOC(=O)c1c(C)[nH]c(C(=O)OC/C(O)=C(\C#N)c2nc3ccccc3[nH]2)c1C | inconclusive: 29.5% | 
Cc1ccc(-n2ccnc(SCC(=O)NC3CCCCC3)c2=O)cc1F |  | inconclusive: 16.4 µM [falling, partial curve]
CC/C(=N\NC(=O)Nc1nonc1N)c1ccc(OC)c(OC)c1 | inconclusive: -0.64% | 

SMILES | activity change, negative = inhibition | Potency
CCN1C(=O)N(CN2CCOCC2)C2C1N(CN1CCOCC1)C(=O)N2CC (stereo unspecified) | inconclusive: 6.82% | 
CCN(CC)CCCNC(=O)c1cc2c(-c3ccc(Cl)cc3)nn(C)c2s1 | inconclusive: 2.33% | 
COc1ccccc1C1CC(c2ccccc2)Nc2ncnn21 (stereo unspecified) | inconclusive: 0.275% | 
CCC(C)Nc1nc2c(c(=O)n(C)c(=O)n2C)n1C (stereo unspecified) |  | inconclusive: 0.355 µM [rising, full curve, poor fit]
Cc1cccc(NC(=O)c2ccc(N3CCCCC3)c([N+](=O)[O-])c2)n1 | inconclusive: -1.32% | 
Cc1cccc(C(=O)OC2CCOC2=O)c1C (stereo unspecified) |  | inconclusive: 5.62 µM [falling, partial curve, poor fit]
Cc1ccc(C(=O)NNC(=O)OC(C)(C)C)c(Cl)c1 | inconclusive: -23.2% | 
Cc1cc(CNC(=O)Cn2nc(C)c([N+](=O)[O-])c2C)c2ccccc2n1 |  | inconclusive: 35.5 µM [falling, single point]
Clc1ccc2c(c1)CNc1c(ncnc1N1CCOCC1)O2 | inconclusive: -7.75% | 
O=C1CC(N(CCc2ccccc2)C(=S)Nc2ccccc2)C(=O)N1c1ccc(Br)cc1 (stereo unspecified) | inconclusive: 20.9% | 
CCn1c(O)c(/C=C2\C=Nc3ccccc32)sc1=Nc1ccc(C)cc1 | inactive: 1.41% | 
Cc1oc(-c2ccccc2Cl)nc1CS(=O)CC(=O)NCCc1ccccc1 (stereo unspecified) | inactive: 0.405% | 
CCOc1ccc(N2C(=O)N(Cc3c(F)cccc3Cl)c3ccccc3S2(=O)=O)cc1 |  | inconclusive: 35.5 µM [falling, single point]
Cc1cccc(/C(N)=N/OC(=O)c2ccco2)c1 |  | inconclusive: 10.3 µM [rising, partial curve, poor fit]
Clc1ccc(C(c2ccccc2)N2CCNCC2)cc1 (stereo unspecified) | inconclusive: 0.541% | 
COCCn1c(SCc2cnc(-c3ccccc3)s2)nnc1-c1ccncc1 | inconclusive: -3.89% | 
NS(=O)(=O)c1ccc(CCNC(=O)C(=O)NCC2OCCN2S(=O)(=O)c2cc(F)ccc2F)cc1 (stereo unspecified) | inconclusive: 11.2% | 
C/C(=N\NC(=O)c1ccncc1)c1ccc(N2CCOCC2)cc1 |  | inconclusive: 25.9 µM [falling, partial curve, poor fit]
Cc1ccc(C(=O)CSc2ccc(-c3cccnc3)nn2)cc1 | inactive: 5.02% | 
Nc1nc(Br)c2ccccc2c1-c1ccc(F)cc1 |  | inconclusive: 1.26 µM [falling, full curve, poor fit]
C[C@H](NC(=O)c1ccccc1)C(=O)Nc1nc(-c2ccccn2)cs1 |  | inconclusive: 35.5 µM [falling, single point]

SMILES | activity change, negative = inhibition | Potency
COc1ccc(Cn2c(SCC(N)=O)nc3c(sc4ccccc43)c2=O)cc1 | inconclusive: 0.808% | 
Cc1cnc2c(c1SCC(=O)Nc1ccc(F)cc1F)c(=O)n(C)c(=O)n2C | inactive: 7.52% | 
COC(=O)c1cc(C)sc1NC(=O)C1C2C=CC(CC2)C1C(=O)O (stereo unspecified) | inconclusive: 1.86% | 
Cc1ccc(C)c(S(=O)(=O)NC(C)C(=O)Nc2ccc(-c3nc4ccccc4s3)cc2)c1 (stereo unspecified) | inactive: 9.33% | 
N#CCn1cnc2c(oc3ccccc32)c1=O | inconclusive: 0.963% | 
Cc1noc(C)c1S(=O)(=O)N1CCN(c2ccccc2Cl)CC1 | inactive: 9.3% | 
Oc1ccc(/C=N/Nc2ncnc3nc[nH]c23)cc1 |  | inconclusive: 12.6 µM [falling, partial curve, poor fit]
COc1ccc(C(=O)Nc2ccccc2C(=O)N/N=C/c2ccco2)cc1 |  | inconclusive: 14.6 µM [falling, partial curve, poor fit]
Oc1ccc(/C=N/n2c(-c3ccccc3)n[nH]c2=S)cc1 | inactive: 1.8% | 
CCN1CCN(S(=O)(=O)c2cccs2)CC1 | inconclusive: 9.44% | 
CC(C)(O)c1cc2ccccc2c(=O)o1 | inconclusive: 2.12% | 
COc1ccc(S(=O)(=O)N(C)C[C@H]2Oc3ccc(NS(=O)(=O)c4ccc(F)cc4)cc3C(=O)N([C@H](C)CO)C[C@@H]2C)cc1 | inconclusive: -1.52% | 
Cc1cccc(C2=NN(c3ccccc3)[C@@H](C(=O)N3CCOC3=O)[C@@H]2c2ccccc2)c1 | inactive: -1.48% | 
Cc1ccc(-c2nc(-c3cccnc3)no2)c(C)c1 | inconclusive: 0.442% | 
O=C(COC(=O)c1ccc(O)cc1)Nc1cccc(S(=O)(=O)NC2=NCCC2)c1 | inconclusive: 8.26% | 
Cc1c(NC(=O)COC(=O)c2cc(-c3ccc(-c4ccccc4)cc3)nc3ccccc23)c(=O)n(-c2ccccc2)n1C | inconclusive: 13.4% | 
COc1ccc(CCN(C)C(=O)COc2ccc(C(=O)c3ccccc3)cc2)cc1OC | inconclusive: 0.282% | 
CCN(CC)CCn1c2c(c(SCC(=O)Nc3nc(C)cs3)nc1=O)CCC2 | inconclusive: 3.18% | 

Taken from above.
COc1cc(NC(=O)CSc2nnnn2Cc2ccc3c(c2)OCO3)cc(OC)c1 | Potency: inconclusive: 16.4 µM [falling, single point]
CCn1cc(CN2CCCC(C(=O)Nc3ccc(-c4nc5ccccc5[nH]4)cc3)C2)c(C)n1 (stereo unspecified) | activity change, negative = inhibition: inconclusive: -1.18%
Cc1ccc(OCC(=O)Nc2ccc3c4c(cccc24)CC3)c(C)c1 | activity change, negative = inhibition: inconclusive: -0.391%

Part of the list above in order of molar mass, smallest number first:
SMILES | activity change, negative = inhibition | Potency
Cc1ccc(OCC(=O)Nc2ccc3c4c(cccc24)CC3)c(C)c1 | inconclusive: -0.391% | 
C/C(=N\Nc1ccc(Cl)c(C(=O)O)c1)c1ccc2c(c1)OCO2 |  | inconclusive: 20 µM [falling, partial curve]
O=C1CC(N(CCc2ccccc2)C(=S)Nc2ccccc2)C(=O)N1c1ccc(Br)cc1 (stereo unspecified) | inconclusive: 20.9% | 
